# In PubChem BioAssay AID2662 (National Center for Advancing Translational Sciences (NCATS), 2010):
# Amino acid sequences for entries named in this document (tags omitted).
# UniProt Q03164, whole entry, looked up: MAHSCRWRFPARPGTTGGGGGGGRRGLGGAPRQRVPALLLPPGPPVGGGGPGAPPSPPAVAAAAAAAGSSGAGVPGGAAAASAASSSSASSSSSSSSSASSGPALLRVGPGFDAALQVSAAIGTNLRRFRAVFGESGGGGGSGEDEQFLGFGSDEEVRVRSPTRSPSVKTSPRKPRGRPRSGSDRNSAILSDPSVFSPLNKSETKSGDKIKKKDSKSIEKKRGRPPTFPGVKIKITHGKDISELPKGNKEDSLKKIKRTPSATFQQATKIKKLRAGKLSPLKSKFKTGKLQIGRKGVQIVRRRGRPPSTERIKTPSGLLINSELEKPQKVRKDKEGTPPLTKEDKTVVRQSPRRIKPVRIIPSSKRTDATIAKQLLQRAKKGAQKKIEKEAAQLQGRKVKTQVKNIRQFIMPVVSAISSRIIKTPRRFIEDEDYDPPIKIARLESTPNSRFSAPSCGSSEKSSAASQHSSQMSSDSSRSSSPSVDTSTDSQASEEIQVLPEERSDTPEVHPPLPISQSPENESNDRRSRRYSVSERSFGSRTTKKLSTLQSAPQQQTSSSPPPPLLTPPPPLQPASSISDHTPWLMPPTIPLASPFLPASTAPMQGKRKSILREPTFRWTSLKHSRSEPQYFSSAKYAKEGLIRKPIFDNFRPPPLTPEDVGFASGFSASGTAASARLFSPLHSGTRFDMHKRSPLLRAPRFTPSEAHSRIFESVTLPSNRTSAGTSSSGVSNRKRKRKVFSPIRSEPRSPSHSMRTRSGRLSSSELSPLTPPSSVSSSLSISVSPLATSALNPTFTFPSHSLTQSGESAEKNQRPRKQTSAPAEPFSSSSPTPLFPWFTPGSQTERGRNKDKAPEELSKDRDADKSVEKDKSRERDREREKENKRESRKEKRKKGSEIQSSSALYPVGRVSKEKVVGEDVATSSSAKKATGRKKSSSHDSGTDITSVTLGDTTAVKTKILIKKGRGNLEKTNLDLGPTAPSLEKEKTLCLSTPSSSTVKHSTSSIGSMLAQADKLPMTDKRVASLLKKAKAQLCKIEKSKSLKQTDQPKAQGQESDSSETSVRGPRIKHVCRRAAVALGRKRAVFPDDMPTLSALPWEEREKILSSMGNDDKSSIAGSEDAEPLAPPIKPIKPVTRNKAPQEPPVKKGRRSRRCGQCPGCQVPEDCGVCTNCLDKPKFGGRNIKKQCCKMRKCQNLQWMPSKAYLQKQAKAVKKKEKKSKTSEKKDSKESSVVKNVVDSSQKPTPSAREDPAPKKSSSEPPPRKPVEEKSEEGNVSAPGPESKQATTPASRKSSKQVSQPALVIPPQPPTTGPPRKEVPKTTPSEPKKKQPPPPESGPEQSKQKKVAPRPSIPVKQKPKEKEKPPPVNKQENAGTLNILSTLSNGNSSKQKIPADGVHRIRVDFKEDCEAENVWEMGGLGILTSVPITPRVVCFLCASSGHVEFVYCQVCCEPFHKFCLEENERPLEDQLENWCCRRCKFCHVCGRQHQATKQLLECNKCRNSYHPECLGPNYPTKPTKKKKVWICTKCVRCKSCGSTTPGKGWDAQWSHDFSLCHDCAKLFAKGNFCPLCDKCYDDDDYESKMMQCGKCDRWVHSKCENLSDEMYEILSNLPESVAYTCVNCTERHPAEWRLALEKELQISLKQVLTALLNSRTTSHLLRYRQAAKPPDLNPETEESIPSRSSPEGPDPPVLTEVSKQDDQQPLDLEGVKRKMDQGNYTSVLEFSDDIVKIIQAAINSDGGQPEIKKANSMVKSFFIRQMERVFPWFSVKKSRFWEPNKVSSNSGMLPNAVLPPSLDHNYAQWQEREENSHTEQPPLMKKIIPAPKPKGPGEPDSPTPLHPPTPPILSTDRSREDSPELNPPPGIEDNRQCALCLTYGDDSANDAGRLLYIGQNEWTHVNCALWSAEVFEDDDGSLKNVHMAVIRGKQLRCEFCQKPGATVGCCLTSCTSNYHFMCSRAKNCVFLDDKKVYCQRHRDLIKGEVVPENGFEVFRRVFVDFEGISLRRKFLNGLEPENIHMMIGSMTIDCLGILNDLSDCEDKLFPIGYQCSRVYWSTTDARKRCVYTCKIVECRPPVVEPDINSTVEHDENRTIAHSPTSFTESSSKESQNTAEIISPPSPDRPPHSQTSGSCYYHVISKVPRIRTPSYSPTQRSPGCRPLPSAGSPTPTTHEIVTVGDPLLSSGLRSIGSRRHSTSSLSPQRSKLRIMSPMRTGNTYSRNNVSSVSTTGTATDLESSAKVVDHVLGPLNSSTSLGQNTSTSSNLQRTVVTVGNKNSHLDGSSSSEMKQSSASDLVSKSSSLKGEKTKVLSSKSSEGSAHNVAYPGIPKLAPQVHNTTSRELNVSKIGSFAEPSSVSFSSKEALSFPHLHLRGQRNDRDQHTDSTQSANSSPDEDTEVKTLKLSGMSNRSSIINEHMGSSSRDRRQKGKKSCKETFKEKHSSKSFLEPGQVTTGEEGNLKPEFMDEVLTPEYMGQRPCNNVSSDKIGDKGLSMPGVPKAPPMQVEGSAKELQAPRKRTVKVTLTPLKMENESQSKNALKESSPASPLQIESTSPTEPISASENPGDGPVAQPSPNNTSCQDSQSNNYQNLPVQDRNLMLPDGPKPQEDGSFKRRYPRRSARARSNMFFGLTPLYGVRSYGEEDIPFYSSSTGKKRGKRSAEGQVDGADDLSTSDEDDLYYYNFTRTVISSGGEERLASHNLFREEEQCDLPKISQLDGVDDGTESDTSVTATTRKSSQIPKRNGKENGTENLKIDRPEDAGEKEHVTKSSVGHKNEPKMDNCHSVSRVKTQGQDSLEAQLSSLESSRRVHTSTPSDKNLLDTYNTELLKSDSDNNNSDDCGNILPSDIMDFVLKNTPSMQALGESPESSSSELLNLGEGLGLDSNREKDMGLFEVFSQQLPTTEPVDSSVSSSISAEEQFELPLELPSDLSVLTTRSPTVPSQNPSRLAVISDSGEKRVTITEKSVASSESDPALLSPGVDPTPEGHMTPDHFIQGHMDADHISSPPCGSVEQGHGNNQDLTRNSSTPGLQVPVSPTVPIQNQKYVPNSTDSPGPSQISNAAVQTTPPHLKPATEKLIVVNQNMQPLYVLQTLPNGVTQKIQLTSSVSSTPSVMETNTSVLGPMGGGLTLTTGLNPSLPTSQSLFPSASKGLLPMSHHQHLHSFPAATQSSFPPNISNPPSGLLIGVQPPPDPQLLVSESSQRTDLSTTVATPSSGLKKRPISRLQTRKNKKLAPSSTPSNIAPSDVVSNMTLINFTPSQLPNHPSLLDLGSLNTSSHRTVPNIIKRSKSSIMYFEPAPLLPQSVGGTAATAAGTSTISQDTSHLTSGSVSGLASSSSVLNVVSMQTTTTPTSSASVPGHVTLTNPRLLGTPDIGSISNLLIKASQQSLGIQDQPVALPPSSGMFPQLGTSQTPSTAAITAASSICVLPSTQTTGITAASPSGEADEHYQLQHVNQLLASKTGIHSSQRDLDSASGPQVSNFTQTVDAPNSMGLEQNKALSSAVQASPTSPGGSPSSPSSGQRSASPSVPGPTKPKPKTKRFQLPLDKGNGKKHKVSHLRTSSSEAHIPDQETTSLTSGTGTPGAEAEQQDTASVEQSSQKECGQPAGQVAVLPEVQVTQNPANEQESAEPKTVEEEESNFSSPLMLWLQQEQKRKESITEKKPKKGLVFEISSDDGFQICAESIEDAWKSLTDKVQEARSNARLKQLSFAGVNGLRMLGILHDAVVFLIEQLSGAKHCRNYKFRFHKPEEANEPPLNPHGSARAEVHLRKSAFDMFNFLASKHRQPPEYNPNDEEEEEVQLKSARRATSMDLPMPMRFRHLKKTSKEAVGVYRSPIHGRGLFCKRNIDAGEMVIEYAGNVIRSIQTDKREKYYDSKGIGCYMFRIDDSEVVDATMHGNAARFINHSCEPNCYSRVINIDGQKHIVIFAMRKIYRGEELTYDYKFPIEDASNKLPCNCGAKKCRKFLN
# About 110 (0.038%) of roughly 290,000 compounds were called active. This list was built around the results that the source calls inconclusive (neither active nor inactive); the mix of calls is not that of the screen. Calls follow the shape of the dose curve; as a rule, active = well fitted inhibition curve with a large enough effect in the polarisation, with a control signal flat (not every such curve was filed as active); inconclusive = small, poorly fitted or top-dose-only effect, or effect the other way, or a change in a side signal; inactive = no such curve, though single readings can be large or run the other way; the % refers to the polarisation. Potencies beside an inconclusive call are fits to weak or partial responses and may not hold up. A note “side channel” means that the fit belongs to a control or component signal, not to the main read-out.
# Molecular target: Histone-lysine N-methyltransferase 2A (Homo sapiens) (UniProt Q03164)
# Experiment: qHTS Fluorescence Polarization Assay for Inhibitors of MLL CXXC domain - DNA interaction
# Details: MLL-CXXC / FITC-HOXA9 DNA fluorescence polarization; activity change, negative = inhibition: at 115 µM (top of the series)
# In short: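 Fluorescence polarization: 7 uM MLL-CXXC (stock) preincubated 5 min with compounds, then 50 nM fluorescein-HOX-A9 DNA (stock) added; 30 min ambient. Buffer 50 mM Tris-HCl pH 7.5, 50 mM NaCl, 1 mM DTT, 0.05% BSA.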
# Potency is read from the fitted curve at half-maximal effect.
Compound,"activity change, negative = inhibition",Potency
CCCCC(=O)Nc1cc(NC(=O)CC)ccc1Cl,inactive: 1.64%,–
Cc1ccccc1NC1=C(Cl)C(=O)OC1OC(C)C (configuration not stated),–,"inconclusive: 8.91 µM [quencher, side channel, single point]"
COc1ccc(CCNC(=O)C2(C)CCC(=O)N2Cc2ccc(C)cc2)cc1OC (configuration not stated),–,"inconclusive: 10 µM [inhibitor, single point]"
Cc1cccc2cc3c(N)c(C(=O)N4CCc5ccccc54)sc3nc12,–,"inconclusive: 5.62 µM [fluorescent, side channel, full curve, poor fit]"
C=CCc1c(C)nc(C)nc1N/N=C/c1ccc(N(C)C)cc1,inactive: 2.9%,–
CCN(C(=O)COC(=O)CSc1ccc(C(N)=O)cc1[N+](=O)[O-])C1CCCCC1,–,"inconclusive: 14.1 µM [fluorescent, side channel, single point]"
CC1CCCN(C(=O)CNS(=O)(=O)c2cccs2)C1 (configuration not stated),–,"inconclusive: 8.91 µM [fluorescent, side channel, full curve]"
COc1ccc(C2CC(c3ccccc3O)=NN2C(=O)c2ccccc2)cc1OC (configuration not stated),–,"inconclusive: 31.6 µM [fluorescent, side channel, single point]"
CN1CCN(c2ccccc2NC(=O)c2cc3c(s2)-c2ccccc2OC3)CC1,inactive: -0.48%,–
Cc1ccc(/C=C2\CCC3=C2OC(N)=C(C#N)C3c2ccc(C)cc2)cc1 (configuration not stated),–,"inconclusive: 6.31 µM [fluorescent, side channel, full curve]"
NC(=Nc1ccc(N)cc1)C(N)=Nc1ccc(N)cc1,inactive: 7.11%,–
CCSc1nc(-c2ccc(OC)cc2)ccc1C#N,inactive: -2.48%,–
COC(=O)C1=C(C)NC(C)=C(C(=O)OC)C1C(=O)OCCN1C(=O)c2ccccc2C1=O,inactive: -2.98%,–
CC(NNC(=O)c1ccccc1)c1ccccc1 (configuration not stated),inactive: 0.693%,–
CC(=O)Nc1ccc(-c2csc(Nc3cccc(C)n3)n2)cc1,inactive: -6.19%,–
O=C(Nc1ccc2c(c1)OCO2)Nc1ccc(F)cc1F,–,"inconclusive: 15.8 µM [quencher, side channel, partial curve]"
COc1ccc(-n2c(O)c(/C=N/NS(=O)(=O)c3cccc([N+](=O)[O-])c3)c3ccccc3c2=O)cc1OC,–,"inconclusive: 7.08 µM [fluorescent, side channel, full curve]"
Clc1ccc(SCc2cc(N3CCOCC3)nc(-c3ccccn3)n2)cc1,–,"inconclusive: 44.7 µM [inhibitor, single point]"
Cc1nn(-c2ccccc2)c(C)c1/C=N/NC(=O)c1cc(O)cc(O)c1,–,"inconclusive: 14.1 µM [quencher, side channel, single point]"
Cc1nc(N/C(N)=N/S(=O)(=O)c2ccc([N+](=O)[O-])cc2)nc2ccccc12,–,"inconclusive: 89.1 µM [quencher, side channel, single point]"
Cc1nc(Oc2ccccc2)c2ccsc2n1,–,"inconclusive: 1 µM [fluorescent, side channel, full curve, poor fit]"

Compound,"activity change, negative = inhibition",Potency
CCOc1ccccc1-n1nnnc1SCc1nc2ccccc2s1,–,"inconclusive: 10 µM [quencher, side channel, full curve, poor fit]"
O=C(c1ccco1)N1CCN(Cc2cccc(F)c2)CC1,inactive: -8.1%,–
COc1cccc2cc(CC(=O)c3cc(C)ccc3C)c(=O)oc12,–,"inconclusive: 1.58 µM [fluorescent, side channel, full curve, poor fit]"
Cc1cc(C)c(S(=O)(=O)N2CCOC2CNC(=O)C(=O)NCCN2CCOCC2)c(C)c1 (configuration not stated),–,"inconclusive: 14.1 µM [quencher, side channel, single point]"
CN(c1ccccc1C(=O)Nc1ccc(F)c(Cl)c1)S(C)(=O)=O,–,"inconclusive: 1 µM [quencher, side channel, full curve, poor fit]"
N#C/C(=C\c1ccc(Cl)c([N+](=O)[O-])c1)c1ccccn1,–,"inconclusive: 39.8 µM [fluorescent, side channel, single point]"
O=C(Nc1ccc2nc3n(c(=O)c2c1)CCCC3)c1cc([N+](=O)[O-])ccc1F,inactive: 8.09%,–
O=C(CSCc1ccc(Cl)cc1)Nc1cc([N+](=O)[O-])ccc1O,inactive: 7.75%,–
c1csc(C2Nc3ccccc3-c3nc4ccccc4n32)c1 (configuration not stated),inactive: 8.14%,–
CN(CC(=O)O)c1ccc(S(=O)(=O)N2CCOCC2)cc1[N+](=O)[O-],–,"inconclusive: 44.7 µM [fluorescent, side channel, partial curve]"
CN(CCOc1ccc(Cl)cc1)CC(=O)Nc1ccc(OC(F)F)cc1,inactive: 7.31%,–
N#C/C(=C(/O)Cc1cccc2ccccc12)c1nc2ccccc2s1,–,"inconclusive: 35.5 µM [inhibitor, partial curve]"
O=c1c2ccccc2nc(-c2ccc([N+](=O)[O-])cc2)n1O,–,"inconclusive: 2.51 µM [fluorescent, side channel, full curve]"
Cc1ccc(NC(=O)c2c(C)nc3sc(C(=O)NC4CCCC4)c(N)c3c2-c2ccco2)c(C)c1,inactive: 13.1%,–
COc1ccc(-c2csc(NS(=O)(=O)c3ccc([N+](=O)[O-])cc3)n2)cc1,inactive: 6.89%,–
CCC(C)NC(=O)NC1C(NC(=O)NC(C)CC)N(C)C(=O)N1C (configuration not stated),–,"inconclusive: 70.8 µM [inhibitor, single point]"
Cc1[nH]c(=O)[nH]c(=O)c1/C=N/NC(=O)[C@H](C)N,inactive: 13.2%,–
CC(C)CC[n+]1ccccc1/C=C/c1ccc(N(C)C)cc1,–,"inconclusive: 11.2 µM [fluorescent, side channel, partial curve, poor fit]"
COc1ccccc1-n1cnnc1SCC(=O)Nc1nc(C)c(Cl)cc1Cl,–,"inconclusive: 3.55 µM [fluorescent, side channel, partial curve]"
CNC(=O)c1cc(C(=O)c2ccccc2Br)c[nH]1,–,"inconclusive: 70.8 µM [fluorescent, side channel, partial curve]"

# Three consecutive entries already listed:
Compound,"activity change, negative = inhibition",Potency
CC(NNC(=O)c1ccccc1)c1ccccc1 (configuration not stated),inactive: 0.693%,–
CC(=O)Nc1ccc(-c2csc(Nc3cccc(C)n3)n2)cc1,inactive: -6.19%,–
O=C(Nc1ccc2c(c1)OCO2)Nc1ccc(F)cc1F,–,"inconclusive: 15.8 µM [quencher, side channel, partial curve]"
